## Screening data, single-dose tests

Chains of the proteins cited; added tags and fusions are not shown. Residues count along the entry.
UniProt A4I591, 1-473: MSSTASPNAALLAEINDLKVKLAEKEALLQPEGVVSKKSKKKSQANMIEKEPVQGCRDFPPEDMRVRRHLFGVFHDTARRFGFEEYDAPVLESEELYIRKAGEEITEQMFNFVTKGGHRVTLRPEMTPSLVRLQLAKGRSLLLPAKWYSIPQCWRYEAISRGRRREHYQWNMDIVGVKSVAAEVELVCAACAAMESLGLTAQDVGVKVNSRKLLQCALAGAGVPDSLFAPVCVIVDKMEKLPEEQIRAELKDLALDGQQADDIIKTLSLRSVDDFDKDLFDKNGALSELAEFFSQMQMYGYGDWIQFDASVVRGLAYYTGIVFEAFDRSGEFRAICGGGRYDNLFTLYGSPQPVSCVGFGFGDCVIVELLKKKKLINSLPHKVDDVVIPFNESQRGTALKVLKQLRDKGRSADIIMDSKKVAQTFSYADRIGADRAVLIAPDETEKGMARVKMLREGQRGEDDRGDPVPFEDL
UniProt P9WNZ1, whole entry: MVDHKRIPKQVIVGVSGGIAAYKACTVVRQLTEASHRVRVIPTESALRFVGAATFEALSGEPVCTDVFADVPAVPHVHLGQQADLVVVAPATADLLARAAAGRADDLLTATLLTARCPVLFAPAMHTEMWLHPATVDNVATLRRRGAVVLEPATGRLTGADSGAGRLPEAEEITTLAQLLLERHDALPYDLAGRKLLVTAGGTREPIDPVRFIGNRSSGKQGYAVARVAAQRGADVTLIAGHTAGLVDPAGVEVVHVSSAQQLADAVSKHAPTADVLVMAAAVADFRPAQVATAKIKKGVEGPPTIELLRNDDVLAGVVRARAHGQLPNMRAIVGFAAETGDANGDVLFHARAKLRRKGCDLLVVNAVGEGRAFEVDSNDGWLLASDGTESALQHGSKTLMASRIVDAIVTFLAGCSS
UniProt P9WFT3, whole entry: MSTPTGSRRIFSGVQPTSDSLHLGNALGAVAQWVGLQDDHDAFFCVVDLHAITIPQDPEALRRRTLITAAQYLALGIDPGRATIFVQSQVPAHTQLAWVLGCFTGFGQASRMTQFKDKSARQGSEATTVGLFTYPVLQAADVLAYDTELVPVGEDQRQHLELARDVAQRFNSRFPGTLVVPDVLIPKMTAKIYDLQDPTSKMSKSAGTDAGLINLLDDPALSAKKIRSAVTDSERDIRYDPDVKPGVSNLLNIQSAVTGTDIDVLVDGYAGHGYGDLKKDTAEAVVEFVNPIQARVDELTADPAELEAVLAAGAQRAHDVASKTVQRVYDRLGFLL

A: 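Enzyme assay of histidyl-tRNA synthetase; the read-out is not stated. Target: Histidine-tRNA ligase, Leishmania infantum (UniProt A4I591). Compounds at 30 µM. Direction is inferred from retests: higher values go with stronger inhibition. The assay is labelled LdHisRS but filed under L. infantum. About 69,000 compounds were tested under these conditions; 0.6% (about 410) showed 50% or more at least once.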
B: 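Enzyme assay of CoaBC with a phosphate dye (Biomol Green) read at 650 nm. Target: Coenzyme A biosynthesis protein CoaBC, Mycobacterium tuberculosis (UniProt P9WNZ1). Tested at 30 µM. Higher reads as stronger inhibition, judged from the few compounds that gave an IC50. Most strong results did not repeat in a second test. Of about 67,000 compounds tested this way, about 40 (0.06%) reached 50% or more in at least one test.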
C: 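Enzyme assay of tryptophanyl-tRNA synthetase; the read-out is not stated. Target: Tryptophan-tRNA ligase, Mycobacterium tuberculosis (UniProt P9WFT3). Concentration: 10 µM. Higher most likely means stronger inhibition; the record gives no direction and few retests gave an IC50. Of about 65,000 compounds tested this way, about 64 (0.098%) reached 50% or more in at least one test.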

Values are the deposited “Percent Effect”, in %.
The controls that fix the scale are not given in the record; negative values are as filed.
This is an unselected part of the compounds tested.
A dash means the value is not listed here; it may have been measured.

compound,A,B,C
OC(CN1CCN(CC2CCCCC2)CC1)c1ccccc1 (centres undefined),25,8.46,-1.125
CN1CCN(C2CCN(CCOc3ccc(Cl)cc3)CC2)C1=O,5.217,2.968,4.284
CCCn1ncc(C(=O)N(Cc2cccnc2)C[C@@H]2CCC(=O)N2)c1C,15.83,-,5.986
CCOc1ncccc1C(=O)N1CCCC1c1c(C)nn(C)c1OC (centres undefined),6.25,1.054,5.062
CCOc1cc(C)nc(N2CCN(C(=O)CN(C)C3CC3)CC2)n1,7.273,5.102,-3.365
CCC1(CC)CC(=O)N(CC(O)c2cccc(Br)c2)C1=O (centres undefined),0,-9.918,-3.207
CCn1nccc1CN(C)C(=O)Cn1nc(C)cc1C,0,-6.459,5.729
O=C(NCCC1CCN(CC(F)(F)F)CC1)C1CCCO1 (centres undefined),9.735,8.178,0.1971
N#Cc1c(Cl)nsc1NCc1ccc(N2CCSCC2)cc1,0,0,4.907
Cc1ccc2c(c1)CCCN2C(=O)c1cncc(Br)c1,17.2,0.7371,0.5128
CC(Cn1cccn1)NC(=O)N1CCN(Cc2ccsc2)CC1 (centres undefined),4.386,-1.979,-1.554
O=C(c1cc2c(s1)CCC2)N1CCN(c2cnccn2)CC1,22.34,11.78,1.161
Cc1nc(C)n(CC2CCCN(CCCOc3ccccc3)C2)n1 (centres undefined),13.51,0.7833,-2.047
CCOC(=O)CNC(=O)NCc1cccn1Cc1ccccc1,15.79,1.772,5.93
COCc1noc(-c2nn(-c3ccccc3F)c3c2CCC3)n1,12.9,3.99,1.102
O=C(CNCCn1cccn1)NCC1(c2ccccc2)CC1,0,7.436,2.111
CCS(=O)(=O)NCc1cccnc1N1CCCC(O)C1 (centres undefined),-1.205,3.165,0.6798
COC(=O)c1cc2n(n1)CCCN(C(=O)Cc1c[nH]c3ccccc13)C2,7.5,3.354,-0.4341
CCC1CC(=O)NCc2nc3sc(C)cn3c21 (centres undefined),15.38,1.408,-5.866
Cc1nc(CNC(C)c2cccc(N3CCCC3=O)c2)cs1 (centres undefined),9.821,1.587,-4.193
COc1cccc(CN2CCN(Cc3ccc4nonc4c3)CC2=O)c1,-2.4,0.3619,-1.232
N#Cc1cccc(OCC(=O)N(Cc2ccncc2)C2CC2)c1,17.02,0,1.586
Cc1ccc(CN2CCOCC2)cc1NCc1ccsc1,14,2.723,0.3458
Cn1c(CN2CCOCC2)nnc1C1CCN(C(=O)C2CCCC2)CC1,13.46,4.904,4.257
CC(C)CCC(=O)NC(C#N)CC(C)C (centres undefined),1.493,-12.45,0.8189
CC(C)c1cc(C(=O)N2C[C@H]3CC[C@@H]2CN(Cc2cccnc2)C3)no1,20.97,4.474,6.612
Cc1nc(-c2ccoc2)n(CC(=O)NCC(C)C)c1C,11.88,0.9709,-
Cc1[nH]ncc1CCCNC(=O)N1CCN2CCCCC2C1 (centres undefined),-11.43,-5.495,3.339
N#Cc1c(F)cccc1N1CCCC(C(=O)Nc2nccs2)C1 (centres undefined),29.27,10.05,6.088
FC(F)(F)COCCN1CCN(c2ccc3nncn3n2)CC1,13.7,2.651,1.519
Cc1noc([C@@H]2CC[C@@H]3[C@@H](CCN3S(C)(=O)=O)O2)n1,12.82,0.7519,-2.075
COc1ccncc1NCc1ccsc1,13.33,4.925,-1.952
COc1cc(C(=O)N(C2CC2)C2CC(=O)NC2=O)ccc1C (centres undefined),14.61,2.571,1.652
CC(C)(C)OCCN1CCCC1c1nc(Cc2ccc(F)cc2)no1 (centres undefined),-6.494,-1.899,4.595
CN1CCN(c2ccc(Br)cc2NC(=O)c2ccco2)CC1,21.52,2.662,-3.763
CCN(CC(O)c1ccc(C)cc1)C(=O)NC(C)C (centres undefined),22.45,4.463,-0.5874
COC(=O)c1ccc2ccn(CC3CCCN(C)C3)c(=O)c2c1 (centres undefined),13.6,8.323,3.696
CCCc1nnc(NC2CCN(C3CCOCC3)CC2)o1,-12.5,-,3.096
CC(C)C(=O)N1Cc2ccccc2CC2(CCCCN2C)C1 (centres undefined),5.517,-2.368,-0.2593
CCN(Cc1cccc(-c2ccncc2)c1)S(N)(=O)=O,10.96,11,0
O=S(=O)(NCC1COCCO1)c1ccc(C2CCCCC2)cc1 (centres undefined),-105.7,-,2.786
CCCn1ccnc1CNC(=O)C1COc2cc(OC)ccc2C1 (centres undefined),5.833,-,0
CN(C)C(C(=O)NCC1(O)CCCCC1)c1c(F)cccc1F (centres undefined),7.895,-1.768,-2.801
CS(=O)(=O)N1CC2(CCN(C3COC3)C2)Cc2ccccc21 (centres undefined),-17.93,2.368,-2.679
O=S1(=O)CCC(S(=O)(=O)c2cccc(S(=O)(=O)N3CCCC3)c2)C1 (centres undefined),15.22,0.1215,1.608
CCN(C(=O)COc1nc(Cc2ccc(F)cc2)no1)C1CC1,3.125,0.8929,-4.644
Cc1c[nH]c(CN(C)C(=O)C2CC(=O)N(Cc3ccncc3)C2)n1 (centres undefined),24.53,-4.405,-5.365
Cc1cc(C(N)=O)ccc1NC(=O)N1CCN(c2cccs2)CC1,15.5,3.071,0.08211
CC(C)n1cc(S(=O)(=O)N2CCSCC2)cn1,5.172,-8.314,0.6477
CC(CN1CCOCC1)n1cncc1-c1ccc2c(c1)CCCN2C (centres undefined),22.7,-3.067,-5.789
Cc1c(C(=O)NC2CC(C)(C)NC(C)(C)C2)cnn1-c1ccc(F)cc1,15.38,-5.433,-6.611
Cc1cnn(CC2CCCN2CCCc2nc3ccccc3o2)c1 (centres undefined),-6.154,13.49,-5.151
CCOc1ccc(CC(CNC(=O)c2ccco2)C(N)=O)cc1 (centres undefined),13.22,2.808,2.034
C/C(=C\c1ccco1)CN(C)C(C)c1ccccn1 (centres undefined),34.33,8.434,19.2
Cc1cc(-c2cccc3c2CCNC3)cnc1-n1cnnc1,10.67,-7.025,-1.257
O=C1CCc2cc(-c3csc(CCN4CCOC4=O)n3)c(F)cc2N1,10.71,3.864,23.88
Cc1ncccc1NC(=O)C1=NOC2(CCN(Cc3nccs3)C2)C1 (centres undefined),19.61,1.416,2.205
COCCC(=O)N1CCC2(CC1)CN(C(C)=O)Cc1ccccc1O2,4.348,-5.256,-1.382
O=C(NCCCNc1ccccn1)NCC1CCS(=O)(=O)C1 (centres undefined),7.937,-5.186,-0.3749
Cc1ccc2c(c1)c(C)cc(=O)n2CC(=O)O,13.04,6.045,-7.326
Cc1cc(CN(C)C(=O)c2cccc(N3CCCS3(=O)=O)c2)no1,20,1.531,-6.316
COc1ccccc1C(C)(C)NC(=O)Nc1ccc(F)c(C(N)=O)c1,17.33,3.38,4.736
CCn1nc(C)c2nnn(CC(=O)Nc3c(C)cccc3C)c(=O)c21,15.53,-6.326,13.67
Cc1cccc(C)c1OCCCN1CCC(n2cncn2)CC1,2.041,0.8264,-3.965
Fc1cccc(-c2nnn3c2COCC(CNCc2nccs2)C3)c1 (centres undefined),20,3.448,2.698
CC(C)c1ocnc1C(=O)N1CCC2(CC1)OCCO2,6.849,5.449,-3.263

For reference, 6 entries once more:

compound	A	B	C
CCC1CC(=O)NCc2nc3sc(C)cn3c21 (centres undefined)	15.38	1.408	-5.866
O=S1(=O)CCC(S(=O)(=O)c2cccc(S(=O)(=O)N3CCCC3)c2)C1 (centres undefined)	15.22	0.1215	1.608
CN1CCN(c2ccc(Br)cc2NC(=O)c2ccco2)CC1	21.52	2.662	-3.763
FC(F)(F)COCCN1CCN(c2ccc3nncn3n2)CC1	13.7	2.651	1.519
Cc1cccc(C)c1OCCCN1CCC(n2cncn2)CC1	2.041	0.8264	-3.965
Cc1nc(CNC(C)c2cccc(N3CCCC3=O)c2)cs1 (centres undefined)	9.821	1.587	-4.193

The values are deposited in ChEMBL (CHEMBL3988442, “University of Dundee, Small-Polar-MMV Screening Library” (2021)).